According to the supplement of paper PMC12823440, “Inhibitors supercharge kinase turnover through native proteolytic circuits” (Nature, 2025):
Some of the results follow. The calls rarely recur for the same compound in another form.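 Kinases were expressed as nanoluciferase fusions in K562 cells and luminescence was read every 4 h between 2 and 18 h as percent of control, DMSO set to 100% and a positive control to 0%. A time point counts as decreased when the signal drops significantly (2 sigma). The hit call is the authors' own, does not follow from the count of time points alone, and its rule is not shown.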

Sequences of proteins named here, by UniProt entry; tags and fusion partners are left off. A change or cut given only in a name is not applied to a line headed by its entry.
UniProt O75460: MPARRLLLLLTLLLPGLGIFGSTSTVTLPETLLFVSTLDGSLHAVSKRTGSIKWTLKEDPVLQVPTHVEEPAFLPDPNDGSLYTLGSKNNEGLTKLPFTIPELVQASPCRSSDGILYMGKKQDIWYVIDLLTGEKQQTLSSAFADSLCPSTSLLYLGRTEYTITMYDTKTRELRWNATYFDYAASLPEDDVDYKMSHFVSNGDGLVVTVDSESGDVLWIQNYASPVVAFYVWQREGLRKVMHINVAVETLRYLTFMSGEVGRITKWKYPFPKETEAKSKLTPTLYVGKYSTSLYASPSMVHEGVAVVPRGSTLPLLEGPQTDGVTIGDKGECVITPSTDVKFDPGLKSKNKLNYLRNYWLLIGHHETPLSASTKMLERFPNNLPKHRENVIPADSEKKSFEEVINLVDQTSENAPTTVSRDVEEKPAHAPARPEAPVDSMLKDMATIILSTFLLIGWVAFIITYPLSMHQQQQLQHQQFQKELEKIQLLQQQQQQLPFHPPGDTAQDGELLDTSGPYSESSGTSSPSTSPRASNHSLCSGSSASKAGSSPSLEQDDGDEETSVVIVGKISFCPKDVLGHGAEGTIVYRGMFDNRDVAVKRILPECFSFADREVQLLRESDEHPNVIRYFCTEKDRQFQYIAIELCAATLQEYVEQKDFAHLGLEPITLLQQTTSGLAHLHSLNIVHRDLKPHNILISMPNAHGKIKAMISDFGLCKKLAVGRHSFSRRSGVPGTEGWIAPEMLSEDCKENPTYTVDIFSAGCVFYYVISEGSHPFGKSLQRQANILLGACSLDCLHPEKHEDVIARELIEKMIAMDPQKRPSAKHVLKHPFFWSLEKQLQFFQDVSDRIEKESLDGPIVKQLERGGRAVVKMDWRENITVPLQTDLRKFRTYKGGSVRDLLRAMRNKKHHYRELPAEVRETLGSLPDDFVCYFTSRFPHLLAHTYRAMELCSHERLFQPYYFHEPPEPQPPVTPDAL
UniProt P11362, whole entry, looked up: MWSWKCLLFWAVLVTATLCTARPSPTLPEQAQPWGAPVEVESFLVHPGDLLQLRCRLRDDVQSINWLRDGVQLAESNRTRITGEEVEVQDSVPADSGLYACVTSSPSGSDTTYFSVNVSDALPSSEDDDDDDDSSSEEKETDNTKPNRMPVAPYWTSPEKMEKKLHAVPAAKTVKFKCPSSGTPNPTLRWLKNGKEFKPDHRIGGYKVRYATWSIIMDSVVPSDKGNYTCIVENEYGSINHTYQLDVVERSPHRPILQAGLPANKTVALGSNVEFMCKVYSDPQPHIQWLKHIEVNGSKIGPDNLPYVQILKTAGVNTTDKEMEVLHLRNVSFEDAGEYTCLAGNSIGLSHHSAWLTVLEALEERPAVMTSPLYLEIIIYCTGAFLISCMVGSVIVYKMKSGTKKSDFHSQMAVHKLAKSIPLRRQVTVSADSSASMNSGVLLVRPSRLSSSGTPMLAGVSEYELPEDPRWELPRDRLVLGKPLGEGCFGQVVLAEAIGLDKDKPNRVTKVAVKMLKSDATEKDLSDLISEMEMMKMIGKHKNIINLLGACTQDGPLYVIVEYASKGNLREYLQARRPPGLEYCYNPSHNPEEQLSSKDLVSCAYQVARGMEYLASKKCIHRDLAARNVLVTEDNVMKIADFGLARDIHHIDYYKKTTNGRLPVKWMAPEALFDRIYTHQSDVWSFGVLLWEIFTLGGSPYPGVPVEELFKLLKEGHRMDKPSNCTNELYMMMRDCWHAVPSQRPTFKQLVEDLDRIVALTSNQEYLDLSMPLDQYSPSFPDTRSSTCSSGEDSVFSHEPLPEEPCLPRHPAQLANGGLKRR
UniProt P21802, whole entry, looked up: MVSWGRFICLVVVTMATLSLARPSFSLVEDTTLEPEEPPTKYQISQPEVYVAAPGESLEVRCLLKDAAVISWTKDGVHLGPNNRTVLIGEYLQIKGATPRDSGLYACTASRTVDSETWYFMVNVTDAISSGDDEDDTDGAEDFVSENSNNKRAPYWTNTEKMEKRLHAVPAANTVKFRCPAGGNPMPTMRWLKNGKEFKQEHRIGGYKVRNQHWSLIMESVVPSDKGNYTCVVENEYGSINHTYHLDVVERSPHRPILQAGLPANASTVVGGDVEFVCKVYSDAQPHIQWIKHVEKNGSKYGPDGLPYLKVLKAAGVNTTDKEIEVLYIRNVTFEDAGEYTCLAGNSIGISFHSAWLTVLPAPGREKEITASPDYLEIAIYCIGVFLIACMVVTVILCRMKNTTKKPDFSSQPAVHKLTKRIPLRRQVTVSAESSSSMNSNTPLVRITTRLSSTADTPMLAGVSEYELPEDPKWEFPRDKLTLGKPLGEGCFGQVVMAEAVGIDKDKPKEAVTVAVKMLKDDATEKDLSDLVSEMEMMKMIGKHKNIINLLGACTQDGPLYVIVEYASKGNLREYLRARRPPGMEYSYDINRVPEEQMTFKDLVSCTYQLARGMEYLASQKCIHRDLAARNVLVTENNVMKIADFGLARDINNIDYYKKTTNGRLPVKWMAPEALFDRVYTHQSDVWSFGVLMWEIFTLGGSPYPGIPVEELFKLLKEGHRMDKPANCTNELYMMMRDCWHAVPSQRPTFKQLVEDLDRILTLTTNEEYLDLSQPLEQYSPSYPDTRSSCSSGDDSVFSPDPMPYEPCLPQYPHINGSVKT
UniProt P22607, whole entry, looked up: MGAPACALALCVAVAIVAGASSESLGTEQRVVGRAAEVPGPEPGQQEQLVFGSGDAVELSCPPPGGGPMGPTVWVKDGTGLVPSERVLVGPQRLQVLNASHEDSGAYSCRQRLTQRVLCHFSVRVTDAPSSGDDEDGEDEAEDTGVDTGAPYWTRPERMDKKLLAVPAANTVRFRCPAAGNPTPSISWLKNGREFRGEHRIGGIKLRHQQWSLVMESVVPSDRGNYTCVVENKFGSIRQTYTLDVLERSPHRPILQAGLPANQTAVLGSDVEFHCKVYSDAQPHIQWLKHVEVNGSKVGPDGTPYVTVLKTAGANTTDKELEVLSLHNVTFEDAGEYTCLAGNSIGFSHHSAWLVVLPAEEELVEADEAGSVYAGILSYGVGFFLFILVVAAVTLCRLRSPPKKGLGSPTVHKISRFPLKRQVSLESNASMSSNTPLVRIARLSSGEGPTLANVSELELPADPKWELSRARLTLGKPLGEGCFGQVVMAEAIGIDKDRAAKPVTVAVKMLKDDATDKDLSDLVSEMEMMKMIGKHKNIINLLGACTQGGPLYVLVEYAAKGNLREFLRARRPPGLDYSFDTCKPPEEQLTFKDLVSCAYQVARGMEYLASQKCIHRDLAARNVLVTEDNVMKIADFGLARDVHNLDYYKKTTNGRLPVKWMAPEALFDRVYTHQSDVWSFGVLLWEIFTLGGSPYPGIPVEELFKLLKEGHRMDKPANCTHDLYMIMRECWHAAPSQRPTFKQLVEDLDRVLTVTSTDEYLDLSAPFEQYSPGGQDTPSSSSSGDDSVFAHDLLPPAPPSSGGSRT
UniProt P36888, whole entry: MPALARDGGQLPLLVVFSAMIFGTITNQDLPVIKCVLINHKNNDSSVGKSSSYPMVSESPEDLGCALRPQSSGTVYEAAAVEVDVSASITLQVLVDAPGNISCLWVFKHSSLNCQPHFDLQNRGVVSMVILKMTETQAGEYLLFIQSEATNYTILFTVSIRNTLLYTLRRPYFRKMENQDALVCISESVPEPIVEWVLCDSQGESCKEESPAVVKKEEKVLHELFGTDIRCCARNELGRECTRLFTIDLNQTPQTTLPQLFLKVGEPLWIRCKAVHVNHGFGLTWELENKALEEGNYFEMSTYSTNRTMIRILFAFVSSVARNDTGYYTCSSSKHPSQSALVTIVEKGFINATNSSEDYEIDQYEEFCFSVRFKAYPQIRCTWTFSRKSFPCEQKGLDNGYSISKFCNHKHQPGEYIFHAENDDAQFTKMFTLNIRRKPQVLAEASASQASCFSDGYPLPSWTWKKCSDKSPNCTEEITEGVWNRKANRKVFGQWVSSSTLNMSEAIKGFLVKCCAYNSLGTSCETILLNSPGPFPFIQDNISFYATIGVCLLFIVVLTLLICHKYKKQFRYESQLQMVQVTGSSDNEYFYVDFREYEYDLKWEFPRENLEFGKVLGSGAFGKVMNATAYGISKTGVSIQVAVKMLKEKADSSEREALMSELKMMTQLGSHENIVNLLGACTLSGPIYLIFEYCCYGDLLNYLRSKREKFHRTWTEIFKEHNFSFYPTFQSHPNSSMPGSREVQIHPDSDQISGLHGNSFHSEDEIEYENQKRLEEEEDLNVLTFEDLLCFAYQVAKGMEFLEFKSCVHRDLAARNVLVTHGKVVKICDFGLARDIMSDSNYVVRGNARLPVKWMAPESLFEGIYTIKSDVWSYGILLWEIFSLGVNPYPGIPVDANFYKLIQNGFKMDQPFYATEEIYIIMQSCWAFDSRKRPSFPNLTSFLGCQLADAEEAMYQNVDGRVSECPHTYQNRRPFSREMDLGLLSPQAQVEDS
UniProt P06241, whole entry, looked up: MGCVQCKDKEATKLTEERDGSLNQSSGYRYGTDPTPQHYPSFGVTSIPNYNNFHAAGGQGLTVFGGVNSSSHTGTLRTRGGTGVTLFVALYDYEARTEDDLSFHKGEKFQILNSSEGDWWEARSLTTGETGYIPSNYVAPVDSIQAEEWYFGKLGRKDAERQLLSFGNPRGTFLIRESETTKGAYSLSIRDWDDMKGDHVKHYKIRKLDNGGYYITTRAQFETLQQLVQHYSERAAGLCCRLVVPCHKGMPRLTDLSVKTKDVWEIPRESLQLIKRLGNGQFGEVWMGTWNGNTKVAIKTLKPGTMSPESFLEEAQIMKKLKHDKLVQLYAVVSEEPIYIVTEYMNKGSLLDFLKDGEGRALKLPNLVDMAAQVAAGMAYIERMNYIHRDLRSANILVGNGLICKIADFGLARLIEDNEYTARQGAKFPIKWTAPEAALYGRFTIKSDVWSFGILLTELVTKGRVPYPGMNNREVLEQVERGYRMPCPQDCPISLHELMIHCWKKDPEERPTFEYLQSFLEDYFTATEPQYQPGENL
UniProt P49840: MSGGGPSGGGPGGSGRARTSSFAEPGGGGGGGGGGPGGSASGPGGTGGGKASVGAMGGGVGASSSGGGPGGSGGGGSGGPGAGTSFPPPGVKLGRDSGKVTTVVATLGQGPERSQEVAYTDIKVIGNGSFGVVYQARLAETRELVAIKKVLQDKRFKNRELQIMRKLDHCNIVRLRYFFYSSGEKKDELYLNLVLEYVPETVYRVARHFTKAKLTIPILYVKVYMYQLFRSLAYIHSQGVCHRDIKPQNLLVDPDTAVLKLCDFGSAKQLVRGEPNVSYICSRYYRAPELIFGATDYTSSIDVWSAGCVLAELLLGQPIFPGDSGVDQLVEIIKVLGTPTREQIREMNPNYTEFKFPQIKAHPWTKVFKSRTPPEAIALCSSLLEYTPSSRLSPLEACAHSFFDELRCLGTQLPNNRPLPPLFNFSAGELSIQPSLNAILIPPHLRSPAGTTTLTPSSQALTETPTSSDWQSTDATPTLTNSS

Key:
Assay in all cases: kinase-Nluc reporter destabilization hit call (1 = scored as downregulated) (binary); higher = compound decreases kinase abundance
Settings in all cases: K562; 2-18 h
[1] = target: ERN1 (UniProt O75460)
[2] = target: FGFR1 (UniProt P11362)
[3] = target: FGFR2 (UniProt P21802)
[4] = target: FGFR3 (UniProt P22607)
[5] = target: FGR (UniProt P09769)
[6] = target: FLT3 (UniProt P36888)
[7] = target: FYN (UniProt P06241)
[8] = target: GSK3A (UniProt P49840)
[9] = target: HER2 (UniProt P04626)
[10] = target: INSRR (UniProt P14616)

Measured: kinase-Nluc reporter destabilization hit call

Cc1ccc(S(=O)(=O)/C=C/C#N)cc1 (10 µM)
inactive: [1] 0 | [2] 0 | [3] 0 | [4] 0 | [5] 0 | [6] 0 | [7] 0 | [8] 0 | [9] 0 | [10] 0

OC[C@H]1O[C@@H](Oc2cc3c(O)cc(O)cc3[o+]c2-c2cc(O)c(O)c(O)c2)[C@H](O)[C@@H](O)[C@@H]1O [Delphinidin 3-glucoside (chloride)] (10 µM)
inactive: [1] 0 | [2] 0 | [3] 0 | [4] 0 | [5] 0 | [6] 0 | [7] 0 | [8] 0 | [9] 0 | [10] 0

O=C(NC(NC(=S)Nc1ccc(F)c([N+](=O)[O-])c1)C(Cl)(Cl)Cl)C(c1ccccc1)c1ccccc1 (stereo not given) (10 µM)
inactive: [1] 0 | [2] 0 | [3] 0 | [4] 0 | [5] 0 | [6] 0 | [7] 0 | [8] 0 | [9] 0 | [10] 0

Copied from the listing (2 entries):
Cc1ccc(S(=O)(=O)/C=C/C#N)cc1 (10 µM)
inactive: [1] 0 | [2] 0 | [3] 0 | [4] 0 | [5] 0 | [6] 0 | [7] 0 | [8] 0 | [9] 0 | [10] 0

OC[C@H]1O[C@@H](Oc2cc3c(O)cc(O)cc3[o+]c2-c2cc(O)c(O)c(O)c2)[C@H](O)[C@@H](O)[C@@H]1O [Delphinidin 3-glucoside (chloride)] (10 µM)
inactive: [1] 0 | [2] 0 | [3] 0 | [4] 0 | [5] 0 | [6] 0 | [7] 0 | [8] 0 | [9] 0 | [10] 0

(further entries)

CC/C=C\C/C=C\C/C=C\CCCCCCCC(=O)O [α-Linolenic acid] (10 µM)
inactive: [1] 0 | [2] 0 | [3] 0 | [4] 0 | [5] 0 | [6] 0 | [7] 0 | [8] 0 | [9] 0 | [10] 0

Cc1csc(-c2nnc(Nc3ccc(Oc4ncccc4-c4ccnc(N)n4)cc3)c3ccccc23)c1 (2.5 µM)
inactive: [1] 0 | [2] 0 | [3] 0 | [4] 0 | [5] 0 | [6] 0 | [7] 0 | [8] 0 | [9] 0 | [10] 0
